Measurements reported in the supplement of paper PMC12819154, “High-throughput peptide-centric local stability assay extends protein–ligand identification to membrane proteins, tissues and bacteria” (Nature Structural & Molecular Biology, 2025).
The list shows a part of the results. Small differences around the control level are noise.

Chains of the proteins cited; added tags and fusions are not shown. Lines headed by an entry give the natural chain unless they say otherwise; changes in a name come on top.
UniProt Q8IW41: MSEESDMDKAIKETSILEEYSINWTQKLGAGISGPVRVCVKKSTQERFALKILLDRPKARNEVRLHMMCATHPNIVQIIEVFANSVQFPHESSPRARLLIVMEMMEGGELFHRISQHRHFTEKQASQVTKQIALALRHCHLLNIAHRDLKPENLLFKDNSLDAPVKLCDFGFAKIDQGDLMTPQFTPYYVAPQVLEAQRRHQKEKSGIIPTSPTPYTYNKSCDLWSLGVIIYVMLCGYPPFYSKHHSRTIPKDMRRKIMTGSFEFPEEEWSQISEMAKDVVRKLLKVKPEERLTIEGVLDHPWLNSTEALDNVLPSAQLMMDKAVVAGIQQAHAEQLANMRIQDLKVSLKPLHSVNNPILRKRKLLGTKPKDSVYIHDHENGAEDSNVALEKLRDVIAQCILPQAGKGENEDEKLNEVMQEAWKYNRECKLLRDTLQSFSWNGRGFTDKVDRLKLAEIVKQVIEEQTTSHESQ
UniProt Q8N2Z9: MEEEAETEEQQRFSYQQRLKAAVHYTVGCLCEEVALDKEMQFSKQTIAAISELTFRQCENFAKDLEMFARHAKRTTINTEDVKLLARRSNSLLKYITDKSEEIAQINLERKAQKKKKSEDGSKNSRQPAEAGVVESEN
UniProt Q8IWS0: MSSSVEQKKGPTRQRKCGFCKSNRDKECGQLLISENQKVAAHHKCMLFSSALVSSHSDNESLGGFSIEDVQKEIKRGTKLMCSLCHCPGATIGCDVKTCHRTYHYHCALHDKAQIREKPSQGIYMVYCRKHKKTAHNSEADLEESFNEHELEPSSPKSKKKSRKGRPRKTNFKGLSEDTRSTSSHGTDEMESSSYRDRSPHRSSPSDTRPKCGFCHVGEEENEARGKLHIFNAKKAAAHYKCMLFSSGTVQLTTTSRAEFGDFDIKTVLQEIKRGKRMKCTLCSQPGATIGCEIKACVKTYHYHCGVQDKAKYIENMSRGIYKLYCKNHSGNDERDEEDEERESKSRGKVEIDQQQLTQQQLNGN
UniProt Q8N392: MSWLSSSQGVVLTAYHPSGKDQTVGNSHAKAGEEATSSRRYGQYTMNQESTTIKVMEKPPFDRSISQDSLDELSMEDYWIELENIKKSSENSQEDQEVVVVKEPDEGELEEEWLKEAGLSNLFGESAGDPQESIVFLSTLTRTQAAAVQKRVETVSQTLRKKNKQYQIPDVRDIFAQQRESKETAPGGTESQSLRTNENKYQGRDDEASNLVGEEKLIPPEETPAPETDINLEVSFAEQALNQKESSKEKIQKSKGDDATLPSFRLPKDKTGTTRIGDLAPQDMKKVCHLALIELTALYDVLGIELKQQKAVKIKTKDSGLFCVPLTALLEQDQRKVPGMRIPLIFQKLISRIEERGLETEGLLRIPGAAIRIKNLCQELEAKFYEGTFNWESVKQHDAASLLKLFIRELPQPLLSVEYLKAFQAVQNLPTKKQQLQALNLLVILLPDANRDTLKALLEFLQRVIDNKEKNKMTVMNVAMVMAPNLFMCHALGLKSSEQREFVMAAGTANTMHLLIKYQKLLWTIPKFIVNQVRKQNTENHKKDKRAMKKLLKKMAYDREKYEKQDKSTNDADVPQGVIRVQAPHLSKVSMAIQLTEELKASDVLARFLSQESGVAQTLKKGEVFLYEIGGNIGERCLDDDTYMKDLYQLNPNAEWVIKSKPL
UniProt Q8IYR2: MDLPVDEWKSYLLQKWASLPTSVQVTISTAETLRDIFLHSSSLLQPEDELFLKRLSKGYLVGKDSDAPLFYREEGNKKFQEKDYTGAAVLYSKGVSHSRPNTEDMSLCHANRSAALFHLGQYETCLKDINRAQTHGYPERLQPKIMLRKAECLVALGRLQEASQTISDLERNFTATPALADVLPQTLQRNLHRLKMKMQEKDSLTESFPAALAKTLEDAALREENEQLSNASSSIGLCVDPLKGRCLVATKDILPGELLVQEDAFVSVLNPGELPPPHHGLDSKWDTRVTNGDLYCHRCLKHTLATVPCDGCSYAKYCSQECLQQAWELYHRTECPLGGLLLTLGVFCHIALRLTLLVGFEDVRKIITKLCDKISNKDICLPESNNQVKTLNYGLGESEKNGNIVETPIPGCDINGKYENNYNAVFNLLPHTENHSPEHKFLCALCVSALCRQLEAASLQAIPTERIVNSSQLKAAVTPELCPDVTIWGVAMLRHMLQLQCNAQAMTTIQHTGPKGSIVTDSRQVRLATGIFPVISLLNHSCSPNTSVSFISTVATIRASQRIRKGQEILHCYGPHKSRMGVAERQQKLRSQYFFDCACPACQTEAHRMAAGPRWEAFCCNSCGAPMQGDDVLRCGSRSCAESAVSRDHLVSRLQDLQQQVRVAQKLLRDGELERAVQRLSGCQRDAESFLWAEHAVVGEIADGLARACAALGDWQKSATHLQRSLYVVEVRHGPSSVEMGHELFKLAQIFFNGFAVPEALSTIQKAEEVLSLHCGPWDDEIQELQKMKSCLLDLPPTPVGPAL
UniProt Q86W56: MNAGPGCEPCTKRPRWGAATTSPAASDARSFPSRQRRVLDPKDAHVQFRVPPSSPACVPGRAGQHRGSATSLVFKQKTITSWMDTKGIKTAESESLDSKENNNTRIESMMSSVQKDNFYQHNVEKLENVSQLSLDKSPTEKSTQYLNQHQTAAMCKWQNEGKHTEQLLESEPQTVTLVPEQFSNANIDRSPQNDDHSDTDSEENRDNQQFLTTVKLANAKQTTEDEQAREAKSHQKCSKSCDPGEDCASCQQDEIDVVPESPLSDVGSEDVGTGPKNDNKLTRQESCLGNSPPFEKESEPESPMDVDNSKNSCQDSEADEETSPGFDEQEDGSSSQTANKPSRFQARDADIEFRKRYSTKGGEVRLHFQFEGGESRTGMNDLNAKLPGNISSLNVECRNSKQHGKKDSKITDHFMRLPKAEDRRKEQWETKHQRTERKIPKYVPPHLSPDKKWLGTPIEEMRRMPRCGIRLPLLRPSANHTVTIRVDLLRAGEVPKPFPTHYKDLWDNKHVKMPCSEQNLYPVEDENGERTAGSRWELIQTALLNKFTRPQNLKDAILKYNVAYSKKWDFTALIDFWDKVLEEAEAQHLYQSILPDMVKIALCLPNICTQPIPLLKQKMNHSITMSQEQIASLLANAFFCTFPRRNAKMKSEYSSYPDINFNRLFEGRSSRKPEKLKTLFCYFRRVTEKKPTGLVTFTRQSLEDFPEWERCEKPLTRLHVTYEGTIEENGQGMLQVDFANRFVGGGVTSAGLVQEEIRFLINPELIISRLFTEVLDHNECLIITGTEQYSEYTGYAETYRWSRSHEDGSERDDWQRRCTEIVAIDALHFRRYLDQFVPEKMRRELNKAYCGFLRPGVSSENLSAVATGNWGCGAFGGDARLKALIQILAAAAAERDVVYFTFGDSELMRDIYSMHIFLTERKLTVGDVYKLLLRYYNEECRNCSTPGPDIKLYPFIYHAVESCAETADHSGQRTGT
UniProt Q8IZD4: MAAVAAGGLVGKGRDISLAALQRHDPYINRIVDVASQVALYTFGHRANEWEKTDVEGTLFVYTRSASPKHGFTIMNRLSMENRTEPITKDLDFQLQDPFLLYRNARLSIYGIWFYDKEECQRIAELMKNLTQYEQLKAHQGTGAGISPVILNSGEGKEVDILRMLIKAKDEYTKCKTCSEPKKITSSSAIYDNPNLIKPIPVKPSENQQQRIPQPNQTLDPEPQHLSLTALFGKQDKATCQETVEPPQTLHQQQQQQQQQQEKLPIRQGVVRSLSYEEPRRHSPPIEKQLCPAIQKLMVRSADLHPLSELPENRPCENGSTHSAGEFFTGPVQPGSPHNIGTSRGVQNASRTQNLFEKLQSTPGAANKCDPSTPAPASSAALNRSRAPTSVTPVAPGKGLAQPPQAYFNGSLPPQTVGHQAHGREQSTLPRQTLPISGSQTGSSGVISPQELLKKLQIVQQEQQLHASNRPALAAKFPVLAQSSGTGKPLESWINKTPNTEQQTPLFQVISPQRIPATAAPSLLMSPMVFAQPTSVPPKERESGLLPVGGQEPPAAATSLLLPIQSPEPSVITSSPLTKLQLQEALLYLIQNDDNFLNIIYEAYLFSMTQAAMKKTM
UniProt Q8N165: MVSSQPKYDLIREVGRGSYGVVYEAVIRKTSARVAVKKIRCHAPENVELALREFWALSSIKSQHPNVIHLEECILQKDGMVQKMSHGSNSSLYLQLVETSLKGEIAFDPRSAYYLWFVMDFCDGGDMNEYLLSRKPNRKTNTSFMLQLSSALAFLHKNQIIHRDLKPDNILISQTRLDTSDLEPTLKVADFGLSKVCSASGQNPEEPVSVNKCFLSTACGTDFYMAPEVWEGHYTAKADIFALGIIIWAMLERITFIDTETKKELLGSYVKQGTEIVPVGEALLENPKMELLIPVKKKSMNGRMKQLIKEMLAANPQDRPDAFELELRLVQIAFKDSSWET
UniProt Q8IV63: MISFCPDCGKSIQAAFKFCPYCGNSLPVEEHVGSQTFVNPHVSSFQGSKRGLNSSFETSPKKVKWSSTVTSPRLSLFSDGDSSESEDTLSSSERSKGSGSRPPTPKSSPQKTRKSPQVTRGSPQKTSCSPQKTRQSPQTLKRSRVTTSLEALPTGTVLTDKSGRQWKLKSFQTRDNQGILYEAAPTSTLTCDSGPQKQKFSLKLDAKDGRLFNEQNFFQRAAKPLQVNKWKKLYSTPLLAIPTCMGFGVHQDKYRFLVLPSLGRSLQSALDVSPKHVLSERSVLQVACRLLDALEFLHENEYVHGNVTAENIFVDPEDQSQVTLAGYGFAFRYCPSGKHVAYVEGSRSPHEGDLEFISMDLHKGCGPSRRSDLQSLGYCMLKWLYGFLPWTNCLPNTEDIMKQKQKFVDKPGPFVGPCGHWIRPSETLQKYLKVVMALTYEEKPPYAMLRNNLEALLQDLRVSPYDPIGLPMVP
UniProt Q8IZP2: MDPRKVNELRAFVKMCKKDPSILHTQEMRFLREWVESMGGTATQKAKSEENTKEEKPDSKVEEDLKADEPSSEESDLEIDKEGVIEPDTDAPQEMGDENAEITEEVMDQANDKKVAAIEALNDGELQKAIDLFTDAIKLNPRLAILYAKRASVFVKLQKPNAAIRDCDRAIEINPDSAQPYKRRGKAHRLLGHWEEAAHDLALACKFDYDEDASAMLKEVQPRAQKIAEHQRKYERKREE
UniProt Q8N131: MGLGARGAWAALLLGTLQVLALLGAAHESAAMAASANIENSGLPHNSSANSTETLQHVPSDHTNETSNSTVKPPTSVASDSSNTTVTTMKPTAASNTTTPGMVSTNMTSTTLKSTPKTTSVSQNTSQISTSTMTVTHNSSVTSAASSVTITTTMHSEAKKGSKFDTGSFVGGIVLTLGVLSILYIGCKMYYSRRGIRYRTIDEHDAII
UniProt Q8IZ69: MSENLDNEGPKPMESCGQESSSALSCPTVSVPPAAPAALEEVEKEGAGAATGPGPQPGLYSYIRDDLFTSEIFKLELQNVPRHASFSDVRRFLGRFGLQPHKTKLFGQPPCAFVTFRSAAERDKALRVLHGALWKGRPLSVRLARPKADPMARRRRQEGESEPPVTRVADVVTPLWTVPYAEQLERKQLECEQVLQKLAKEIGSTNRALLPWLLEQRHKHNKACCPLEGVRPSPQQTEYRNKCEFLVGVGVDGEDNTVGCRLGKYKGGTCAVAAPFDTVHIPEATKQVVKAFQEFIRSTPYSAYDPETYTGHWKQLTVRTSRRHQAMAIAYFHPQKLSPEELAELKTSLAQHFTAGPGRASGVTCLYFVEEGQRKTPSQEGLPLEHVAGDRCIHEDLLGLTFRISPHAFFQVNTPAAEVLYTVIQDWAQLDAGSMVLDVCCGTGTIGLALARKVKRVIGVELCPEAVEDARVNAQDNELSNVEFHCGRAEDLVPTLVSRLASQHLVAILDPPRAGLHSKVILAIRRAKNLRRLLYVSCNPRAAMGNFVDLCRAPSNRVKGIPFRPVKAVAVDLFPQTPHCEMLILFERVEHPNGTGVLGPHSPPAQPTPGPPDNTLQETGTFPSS
UniProt Q8IUI8: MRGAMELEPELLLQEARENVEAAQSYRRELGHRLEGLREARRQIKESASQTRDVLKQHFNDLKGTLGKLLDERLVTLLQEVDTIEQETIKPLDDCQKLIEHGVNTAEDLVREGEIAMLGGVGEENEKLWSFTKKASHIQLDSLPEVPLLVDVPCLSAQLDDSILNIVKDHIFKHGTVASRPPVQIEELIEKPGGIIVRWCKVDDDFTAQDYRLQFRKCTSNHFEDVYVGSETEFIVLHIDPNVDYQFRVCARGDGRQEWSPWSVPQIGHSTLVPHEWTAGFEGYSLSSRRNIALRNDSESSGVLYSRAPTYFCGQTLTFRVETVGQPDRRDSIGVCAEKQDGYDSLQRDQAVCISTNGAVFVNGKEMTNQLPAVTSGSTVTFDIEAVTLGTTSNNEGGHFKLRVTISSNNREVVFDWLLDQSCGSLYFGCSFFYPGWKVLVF
UniProt Q8IWT1: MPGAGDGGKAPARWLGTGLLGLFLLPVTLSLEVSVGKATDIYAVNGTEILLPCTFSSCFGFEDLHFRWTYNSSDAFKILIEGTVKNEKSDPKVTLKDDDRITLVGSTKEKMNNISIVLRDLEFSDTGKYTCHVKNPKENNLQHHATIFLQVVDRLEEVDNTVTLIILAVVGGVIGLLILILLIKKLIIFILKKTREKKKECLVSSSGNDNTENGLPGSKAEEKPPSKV

Compound: CN[C@@H]1C[C@H]2O[C@@](C)([C@@H]1OC)n1c3ccccc3c3c4c(c5c6ccccc6n2c5c31)C(=O)NC4 [staurosporine]
Experiment: log2 fold change of tryptic peptide abundance, ligand vs vehicle (limited proteolysis) (log2 ratio); higher = more trypsin-susceptible (destabilized)
Details: ligand concentration: 20 uM; sample: K562 cleared lysate; digestion: 4 min, 22 C (HT-PELSA RT4min, Orbitrap Astral)

| Target | log2 fold change |
| --- | --- |
| UniProt Q8IWY8 (peptide sequence: NSQVYGAVAER, peptide start residue: 275) | 0.356 |
| UniProt Q8IW41 (peptide sequence: AVVAGIQQAHAEQLANMR, peptide start residue: 324) | 0.231 |
| ASCC3 (peptide sequence: HREQLVIEVGR, peptide start residue: 949) (UniProt Q8N3C0) | -0.218 |
| UniProt Q8N2Z9 (peptide sequence: SEEIAQINLER, peptide start residue: 100) | -0.352 |
| PHF6 (peptide sequence: TVLQEIKR, peptide start residue: 267) (UniProt Q8IWS0) | -0.189 |
| UEVLD (peptide sequence: QVDLLAYIAK, peptide start residue: 152) (UniProt Q8IX04) | -0.13 |
| UniProt Q8IZ26 (peptide sequence: AVTLTNGESSR, peptide start residue: 166) | -0.246 |
| UniProt Q86WT1 (peptide sequence: EAIGFYEPIVKK, peptide start residue: 477) | -0.388 |
| FAM114A1 (peptide sequence: SVLTGGLDALEFIGKK, peptide start residue: 222) (UniProt Q8IWE2) | 0.368 |
| ARHGAP18 (peptide sequence: IGDLAPQDMK, peptide start residue: 276) (UniProt Q8N392) | -0.147 |
| SMYD4 (peptide sequence: MQEKDSLTESFPAALAK, peptide start residue: 198) (UniProt Q8IYR2) | -0.678 |
| PARG (peptide sequence: STQYLNQHQTAAMCK, peptide start residue: 142) (UniProt Q86W56) | -0.161 |
| UBR2 (peptide sequence: KEESTPNNASTK, peptide start residue: 1262) (UniProt Q8IWV8) | -1.33 |
| UniProt Q8IUE6 (peptide sequence: KTESHKPGK, peptide start residue: 120) | 0.223 |
| DGKH (peptide sequence: ASYGHSQTDSVPGPAVAASK, peptide start residue: 690) (UniProt Q86XP1) | -0.408 |
| DCP1B (peptide sequence: QLCPAIQK, peptide start residue: 289) (UniProt Q8IZD4) | 0.158 |
| PDIK1L (peptide sequence: DLKPDNILISQTR, peptide start residue: 164) (UniProt Q8N165) | -0.267 |
| SVBP (peptide sequence: AEIYALNR, peptide start residue: 37) (UniProt Q8N300) | -0.0615 |
| UniProt Q86X10 (peptide sequence: GISCLVDAFLGISRPR, peptide start residue: 341) | 1.03 |

Look-ups from the results shown.
UniProt Q8IZ26 (peptide sequence: AVTLTNGESSR, peptide start residue: 166) | log2 fold change: -0.246
UniProt Q8N2Z9 (peptide sequence: SEEIAQINLER, peptide start residue: 100) | log2 fold change: -0.352

(next part)

| Target | log2 fold change |
| --- | --- |
| VRK3 (peptide sequence: QSPQTLKR, peptide start residue: 135) (UniProt Q8IV63) | 0.691 |
| AHI1 (peptide sequence: HHESSSVDTEPGLEESKEVIK, peptide start residue: 566) (UniProt Q8N157) | 0.271 |
| ST13P4 (peptide sequence: LQKPNAAIR, peptide start residue: 161) (UniProt Q8IZP2) | 0.252 |
| MIER2 (peptide sequence: YDYFAQQTR, peptide start residue: 330) (UniProt Q8N344) | -0.175 |
| UniProt Q86YR5 (peptide sequence: PAQALTFAK, peptide start residue: 345) | 0.706 |
| CEP57 (peptide sequence: SPSKPTLAYPESNSR, peptide start residue: 53) (UniProt Q86XR8) | 0.789 |
| TMEM123 (peptide sequence: TIDEHDAII, peptide start residue: 200) (UniProt Q8N131) | 0.142 |
| DCP2 (peptide sequence: EVFEETGFDIK, peptide start residue: 144) (UniProt Q8IU60) | -0.21 |
| HOMER1 (peptide sequence: NKDLEGQLSDLEQR, peptide start residue: 298) (UniProt Q86YM7) | 0.42 |
| TRMT2A (peptide sequence: HASFSDVR, peptide start residue: 83) (UniProt Q8IZ69) | 0.255 |
| CRLF3 (peptide sequence: DVLKQHFNDLK, peptide start residue: 53) (UniProt Q8IUI8) | -0.329 |
| HEATR5A (peptide sequence: SLVASSPALK, peptide start residue: 1991) (UniProt Q86XA9) | 0.0723 |
| UniProt Q8IWT1 (peptide sequence: LIIFILK, peptide start residue: 186) | 0.0738 |
| UniProt Q86WG3 (peptide sequence: SLIIVHPSWFIR, peptide start residue: 243) | 0.0228 |
| PELP1 (peptide sequence: ACMTYFPR, peptide start residue: 201) (UniProt Q8IZL8) | 0.451 |
| UniProt Q8IY26 (peptide sequence: ATAVDPTCAR, peptide start residue: 48) | -0.452 |
| KLHDC8B (peptide sequence: VYGTVAHQDGHLLVLGGCGR, peptide start residue: 22) (UniProt Q8IXV7) | -0.317 |
| GSPT2 (peptide sequence: DIHFMPCSGLTGANIK, peptide start residue: 384) (UniProt Q8IYD1) | -0.341 |
